Laboratory results: PubChem BioAssay AID743454 (Peter MacCallum Cancer Centre, 2014)
The whole screen tested about 18,000 reagents; this is a part drawn at random. Over the whole deposit, 450 (2.5%) were called active. 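Single biological run; no consistent viability z cut-off exists, so the class columns, not z-scores, define the calls.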 Reagents against one gene are numbered here.

Purpose: 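Genes whose loss kills vorinostat-resistant colon cancer cells under vorinostat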 (primary screen)
Cell system: human HCT116-VR colon cancer cells, selected for vorinostat resistance
Reagents: siRNA pool against human genes, 40 nM siRNA pool
Duration: vorinostat for 24 h, read-out about 72 h after transfection
Challenge: vorinostat at 2.5 µM final
Measurement: 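Two measures, CellTiter-Fluor viability and luminescent caspase 3/7 activity, each as fold change against same-plate mock wells, mean of duplicates, then screen-wide robust z-score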
Direction: viability robust z-score: higher = more viable cells than screen typical; caspase robust z-score: higher = more caspase 3/7 activity than screen typical
Rule for the call: 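Hits are knock-downs in viability class RV1/RV2 or caspase class CA1/CA2, excluding ones that killed cells in the no-drug cell-count arm; hits then retested with single siRNAs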

Target gene | reagent | viability hit class | caspase hit class | viability robust z-score | caspase robust z-score | Outcome
POFUT4 (protein O-fucosyltransferase 4) | 1 | no change | no change | -0.47 | -0.97 | inactive
RCBTB2 (RCC1 and BTB domain containing protein 2) | 1 | no change | no change | -0.11 | -0.94 | inactive
ARID2 (AT-rich interaction domain 2) | 1 | no change | no change | 1.44 | -0.32 | inactive
THAP4 (THAP domain containing 4) | 1 | no change | no change | -0.64 | -1.21 | inactive
ASB1 (ankyrin repeat and SOCS box containing 1) | 1 | no change | no change | -0.55 | 0.76 | inactive
SELENOM (selenoprotein M) | 1 | no change | no change | 1.15 | 2.02 | inactive
EID2 (EP300 interacting inhibitor of differentiation 2) | 1 | no change | no change | 1.58 | 0.19 | inactive
CASP3 (caspase 3) | 1 | no change | no change | 0.02 | -1.37 | inactive
CDCA8 (cell division cycle associated 8) | 1 | no change | no change | -1.22 | 5.64 | inactive
NTRK2 (neurotrophic receptor tyrosine kinase 2) | 1 | no change | no change | 0.29 | 0.18 | inactive
CRISP3 (cysteine rich secretory protein 3) | 1 | no change | no change | -0.42 | 0.16 | inactive
EPHA8 (EPH receptor A8) | 1 | no change | no change | 1.72 | -0.12 | inactive
TRIM16L (tripartite motif containing 16 like (pseudogene)) | 1 | no change | no change | 0.46 | 3.97 | inactive
FBLN5 (fibulin 5) | 1 | no change | no change | 0 | 1.06 | inactive
WFDC2 (WAP four-disulfide core domain 2) | 1 | no change | no change | -0.05 | 1.56 | inactive
ZNF3 (zinc finger protein 3) | 1 | no change | no change | -0.6 | -0.8 | inactive
CHST2 (carbohydrate sulfotransferase 2) | 1 | no change | no change | -0.3 | -0.76 | inactive
OR6C68 (olfactory receptor family 6 subfamily C member 68) | 1 | no change | no change | -0.18 | -0.49 | inactive
RP9 (RP9 pre-mRNA splicing factor) | 1 | no change | no change | 0.3 | 0.23 | inactive
SLC5A10 | 1 | no change | no change | 0.21 | 0.19 | inactive
PDLIM2 (PDZ and LIM domain 2) | 1 | no change | no change | -0.18 | -0.43 | inactive
DEPP1 (DEPP autophagy regulator 1) | 1 | no change | no change | 1.06 | 0.09 | inactive
NUP62 (nucleoporin 62) | 1 | RV2 (reduced viability) | CA2 (caspase activation) | -3.42 | 8.13 | active
HNRNPL (heterogeneous nuclear ribonucleoprotein L) | 1 | no change | no change | -0.21 | 3.46 | inactive
MYOG (myogenin) | 1 | no change | no change | -0.53 | 0.58 | inactive
SPATA31A1 (SPATA31 subfamily A member 1) | 1 | no change | no change | -0.38 | 0.64 | inactive
SPATA31A1 (SPATA31 subfamily A member 1) | 2 | no change | no change | -1.47 | -0.12 | inactive
MRPS33 (mitochondrial ribosomal protein S33) | 1 | no change | no change | 0.69 | -0.48 | inactive
PIANP (PILR alpha associated neural protein) | 1 | no change | no change | 0 | 0.98 | inactive
ARHGAP45 (Rho GTPase activating protein 45) | 1 | no change | no change | 0.96 | -0.13 | inactive
UBE2H (ubiquitin conjugating enzyme E2 H) | 1 | no change | no change | -0.63 | 1.9 | inactive
TSPAN18 (tetraspanin 18) | 1 | no change | no change | 0.08 | 0.8 | inactive
ARHGAP32 (Rho GTPase activating protein 32) | 1 | no change | no change | -1.25 | -0.52 | inactive
IP6K3 (inositol hexakisphosphate kinase 3) | 1 | no change | no change | -0.8 | -0.22 | inactive
B3GALNT1 | 1 | no change | no change | 0.72 | -0.86 | inactive
ZNF484 (zinc finger protein 484) | 1 | no change | no change | 0.48 | -0.08 | inactive
NNMT (nicotinamide N-methyltransferase) | 1 | no change | no change | -2.72 | 3.62 | inactive
HIPK1 (homeodomain interacting protein kinase 1) | 1 | no change | no change | 1.32 | 0.22 | inactive
KRT38 (keratin 38) | 1 | no change | no change | 0.22 | 0.63 | inactive
SPMIP10 (sperm microtubule inner protein 10) | 1 | no change | no change | 0.52 | -0.52 | inactive
TMEM130 (transmembrane protein 130) | 1 | no change | no change | -0.72 | -0.45 | inactive
CREG1 (cellular repressor of E1A stimulated genes 1) | 1 | no change | no change | 0.86 | 0.13 | inactive
SPACA5 (sperm acrosome associated 5) | 1 | no change | no change | 0.28 | -0.38 | inactive
NDUFAB1 (NADH:ubiquinone oxidoreductase subunit AB1) | 1 | no change | no change | -0.71 | 0.36 | inactive
ARRDC3 (arrestin domain containing 3) | 1 | no change | no change | -0.2 | -1.03 | inactive
HCG27 (HLA complex group 27) | 1 | no change | no change | -0.35 | 2.21 | inactive
SPINT4 (serine peptidase inhibitor, Kunitz type 4) | 1 | no change | no change | 0.15 | 3.69 | inactive
WWC2 (WW and C2 domain containing 2) | 1 | no change | no change | -0.46 | -0.41 | inactive
OTP (orthopedia homeobox) | 1 | no change | no change | 0.14 | -0.38 | inactive
SCT (secretin) | 1 | no change | no change | -2.16 | 1.35 | inactive
SFMBT1 (Scm like with four mbt domains 1) | 1 | no change | no change | 0.68 | -0.34 | inactive
ELAVL4 (ELAV like RNA binding protein 4) | 1 | no change | no change | -0.33 | 0.74 | inactive
TFAP2A (transcription factor AP-2 alpha) | 1 | no change | no change | -1 | 0.69 | inactive
LPIN2 (lipin 2) | 1 | no change | no change | -0.67 | -1 | inactive
HSP90AB1 (heat shock protein 90 alpha family class B member 1) | 1 | no change | no change | 0.7 | 2.15 | inactive
CDC42EP5 (CDC42 effector protein 5) | 1 | no change | no change | -0.66 | -0.02 | inactive
C5orf34 (chromosome 5 open reading frame 34) | 1 | no change | no change | -0.44 | -0.18 | inactive

Sorted by “caspase robust z-score” (lowest first): 8 of the entries above.
Target gene | reagent | viability hit class | caspase hit class | viability robust z-score | caspase robust z-score | Outcome
MRPS33 (mitochondrial ribosomal protein S33) | 1 | no change | no change | 0.69 | -0.48 | inactive
ARHGAP45 (Rho GTPase activating protein 45) | 1 | no change | no change | 0.96 | -0.13 | inactive
SPATA31A1 (SPATA31 subfamily A member 1) | 2 | no change | no change | -1.47 | -0.12 | inactive
MYOG (myogenin) | 1 | no change | no change | -0.53 | 0.58 | inactive
SPATA31A1 (SPATA31 subfamily A member 1) | 1 | no change | no change | -0.38 | 0.64 | inactive
PIANP (PILR alpha associated neural protein) | 1 | no change | no change | 0 | 0.98 | inactive
HNRNPL (heterogeneous nuclear ribonucleoprotein L) | 1 | no change | no change | -0.21 | 3.46 | inactive
NUP62 (nucleoporin 62) | 1 | RV2 (reduced viability) | CA2 (caspase activation) | -3.42 | 8.13 | active
